Values from PubChem BioAssay AID1259405 (NCATS, 2018)
Test: 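Knock-downs that lift recombinant protein yield in hamster ovary cells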 (primary screen). System: Chinese hamster CHO-K1 ovary cells with stable secreted eGFP expression. Reagent: single siRNA against mouse genes, 0.8 pmol siRNA per well (2 µl of 400 nM stock). Time to read-out: 3 days. Read-out: 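Percent of the per-plate non-targeting control median for intracellular GFP per well by laser scanning cytometry and for cell viability by ATP luminescence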. Direction: GFP, % of control: higher = more GFP per well, higher productivity; viability (ATP), % of control: higher = more viable cells (more ATP). Call rule: 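Called active when intracellular GFP, relative to negative control, is at or above 120%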.
In all, the deposit lists about 50,000 reagents; below is a part drawn at random. About 4,000 of them (8%) count as active. 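Mouse siRNA library applied to hamster cells; one well for each siRNA.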 Unmarked entries are inactive. Reagents against one gene are numbered here.

target gene,reagent no.,"GFP, % of control","viability (ATP), % of control"
Fiz1 (Flt3 interacting zinc finger protein 1),1,58,71.1
Fiz1 (Flt3 interacting zinc finger protein 1),2,65.5,68.1
Fiz1 (Flt3 interacting zinc finger protein 1),3,105,104
Dkk4 (dickkopf WNT signaling pathway inhibitor 4),1,72,57.7
Dkk4 (dickkopf WNT signaling pathway inhibitor 4),2,62.1,73
Dkk4 (dickkopf WNT signaling pathway inhibitor 4),3,90.4,46.5
Usp43 (ubiquitin specific peptidase 43),1,88.1,111
Usp43 (ubiquitin specific peptidase 43),2,82.3,63.9
Usp43 (ubiquitin specific peptidase 43),3,47.5,45.6
"Farp2 (FERM, RhoGEF and pleckstrin domain protein 2)",1,44.2,34.1
"Farp2 (FERM, RhoGEF and pleckstrin domain protein 2)",2,93.2,90.3
"Farp2 (FERM, RhoGEF and pleckstrin domain protein 2)",3,87.4,52.3
Fbxo8 (F-box protein 8),1,86.9,86.9
Fbxo8 (F-box protein 8),2,66.3,64
Fbxo8 (F-box protein 8),3,34.2,44.2
Stc2 (stanniocalcin 2),1,89.9,64
Stc2 (stanniocalcin 2),2,57.1,72.3
Stc2 (stanniocalcin 2),3,84.8,67.1
Fpgs (folylpolyglutamyl synthetase),1,118,73.2
Fpgs (folylpolyglutamyl synthetase),2,87.5,79.2
Fpgs (folylpolyglutamyl synthetase),3,61.8,52.9
Wscd1 (WSC domain containing 1),1,73.5,61.8
Wscd1 (WSC domain containing 1),2,87.3,92.3
Wscd1 (WSC domain containing 1),3,44.6,35.7
Med10 (mediator complex subunit 10),1,111,56.6
Med10 (mediator complex subunit 10),2,86.8,84.6
Med10 (mediator complex subunit 10),3,144 (active),109
Or7g25 (olfactory receptor family 7 subfamily G member 25),1,78,71.1
Or7g25 (olfactory receptor family 7 subfamily G member 25),2,61.3,47.7
Or7g25 (olfactory receptor family 7 subfamily G member 25),3,66.4,76.1
Lyzl1 (lysozyme-like 1),1,70.4,93.4
Lyzl1 (lysozyme-like 1),2,76.9,108
Lyzl1 (lysozyme-like 1),3,46.5,52.2
"Siva1 (SIVA1, apoptosis-inducing factor)",1,46.6,57.1
"Siva1 (SIVA1, apoptosis-inducing factor)",2,57.6,39.8
Nsd1 (nuclear receptor-binding SET-domain protein 1),1,58.3,46.4
Nsd1 (nuclear receptor-binding SET-domain protein 1),2,83.4,73.8
Nsd1 (nuclear receptor-binding SET-domain protein 1),3,68.1,71.5
Jmjd6 (jumonji domain containing 6),1,101,124
Jmjd6 (jumonji domain containing 6),2,74.1,41.7
Jmjd6 (jumonji domain containing 6),3,85.2,89.4
Or4c118 (olfactory receptor family 4 subfamily C member 118),1,67,65.6
Or4c118 (olfactory receptor family 4 subfamily C member 118),2,69.2,59.8
Or4c118 (olfactory receptor family 4 subfamily C member 118),3,53.6,80.2

Next part; the last 11 above are carried over.
target gene,reagent no.,"GFP, % of control","viability (ATP), % of control"
"Siva1 (SIVA1, apoptosis-inducing factor)",1,46.6,57.1
"Siva1 (SIVA1, apoptosis-inducing factor)",2,57.6,39.8
Nsd1 (nuclear receptor-binding SET-domain protein 1),1,58.3,46.4
Nsd1 (nuclear receptor-binding SET-domain protein 1),2,83.4,73.8
Nsd1 (nuclear receptor-binding SET-domain protein 1),3,68.1,71.5
Jmjd6 (jumonji domain containing 6),1,101,124
Jmjd6 (jumonji domain containing 6),2,74.1,41.7
Jmjd6 (jumonji domain containing 6),3,85.2,89.4
Or4c118 (olfactory receptor family 4 subfamily C member 118),1,67,65.6
Or4c118 (olfactory receptor family 4 subfamily C member 118),2,69.2,59.8
Or4c118 (olfactory receptor family 4 subfamily C member 118),3,53.6,80.2
Mbnl2 (muscleblind like splicing factor 2),1,80.1,59.8
Mbnl2 (muscleblind like splicing factor 2),2,66.7,77.2
Mbnl2 (muscleblind like splicing factor 2),3,50.9,50.8
Stard4 (StAR related lipid transfer domain containing 4),1,148 (active),93.1
Stard4 (StAR related lipid transfer domain containing 4),2,97.3,71.1
Stard4 (StAR related lipid transfer domain containing 4),3,102,106
"Smpdl3a (sphingomyelin phosphodiesterase, acid-like 3A)",1,77.5,87.3
"Smpdl3a (sphingomyelin phosphodiesterase, acid-like 3A)",2,57.2,67.8
"Smpdl3a (sphingomyelin phosphodiesterase, acid-like 3A)",3,126 (active),52.9
Sdcbp (syndecan binding protein),1,63.7,42.6
Sdcbp (syndecan binding protein),2,57.6,45.7
Sdcbp (syndecan binding protein),3,47.5,37.8
Sez6l2 (seizure related 6 homolog like 2),1,36.3,45.6
Sez6l2 (seizure related 6 homolog like 2),2,147 (active),88.1
Sez6l2 (seizure related 6 homolog like 2),3,41.8,58.4
Ccdc92 (coiled-coil domain containing 92),1,69.9,66.1
Ccdc92 (coiled-coil domain containing 92),2,75.4,65.8
Ccdc92 (coiled-coil domain containing 92),3,60,39.7
Ptprn (protein tyrosine phosphatase receptor type N),1,56.9,79.6
Ptprn (protein tyrosine phosphatase receptor type N),2,130 (active),97.9
Gm5087 (predicted gene 5087),1,82.9,97.3
Gm5087 (predicted gene 5087),2,95.8,86.3
Gm5087 (predicted gene 5087),3,83.3,116
Best3 (bestrophin 3),1,77,86.9
Best3 (bestrophin 3),2,131 (active),77.1
Best3 (bestrophin 3),3,80.8,78.2
Abhd16b (abhydrolase domain containing 16B),1,135 (active),70.5
Abhd16b (abhydrolase domain containing 16B),2,26,45.4
Abhd16b (abhydrolase domain containing 16B),3,103,62.7
Apaf1 (apoptotic peptidase activating factor 1),1,94.3,85.9
Apaf1 (apoptotic peptidase activating factor 1),2,86.3,106
Apaf1 (apoptotic peptidase activating factor 1),3,73,58.3
Actr8 (ARP8 actin-related protein 8),1,83.2,74.8
Actr8 (ARP8 actin-related protein 8),2,76.8,70.2
Brms1l (breast cancer metastasis-suppressor 1-like),1,88.8,98.5
Brms1l (breast cancer metastasis-suppressor 1-like),2,92.6,90.1
Brms1l (breast cancer metastasis-suppressor 1-like),3,103,103
Bcar1 (breast cancer anti-estrogen resistance 1),1,89.1,109
Bcar1 (breast cancer anti-estrogen resistance 1),2,74.3,102
Bcar1 (breast cancer anti-estrogen resistance 1),3,103,88.3
